No constants are given. Whether binding was seen depends on the method and setting. Binding seen in cells or lysates may run through a third protein. Some results given as binding are weak or reduced against the parent protein; the word gives no strength. Where a sequence is shown, tags or fusion partners need not be part of it.

We go through 2 molecules from article doi:10.1101/2024.09.19.613872.

For this assay, the target named is C-terminally HA-tagged wild type human Ulk4 (human) (UniProt Q96C45). Briefly: co-IP; HEK293T cells transfected with Fg-tagged and HA-tagged Ulk4 constructs; immunoprecipitation and western blot with the indicated antibodies; which tag was precipitated is not given. Background: In western blotting, separated proteins are transferred to a membrane and probed.

B1: C-terminal fragment of Ulk4-EE from aa1004-aa1275, Flag-tagged (domain or fragment, UniProt Q96C45 1004-1275)
chain: VPAYALKLLVAMTEHNPEFERLVEESKLIPLIFEVTLEHQESILGNTMQSVIALLSNLVACKDSNMELLYEQGLVSHICNLLTETATLCLDVDNKNNNEMAAPLLFSLLDILHSMLTYTSGIVRLALQAQKSGSGEDPQAAEDLLLLNRPLTDLISLLIPLLPNEDPEIFDVSSKCLSILVQLYGGENPDSLSPENVEIFAHLLTSKEDPKEQKLLLRILRRMITSNEKHLESLKNAGSLLRALERLAPGSGSFADSAVAPLALEILQAVGH
In the case of B1, the binding result is listed as “binds”.

B2: Flag-tagged Ulk4-EE-KR (human Ulk4 T1021E/T1023E/K1030R) (protein, UniProt Q96C45 1-1275)
chain: MENFILYEEIGRGSKTVVYKGRRKGTINFVAILCTDKCKRPEITNWVRLTREIKHKNIVTFHEWYETSNHLWLVVELCTGGSLKTVIAQDENLPEDVVREFGIDLISGLHHLHKLGILFCDISPRKILLEGPGTLKFSNFCLAKVEGENLEEFFALVAAEEGGGDNGENVLKKSMKSRVKGSPVYTAPEVVRGADFSISSDLWSLGCLLYEMFSGKPPFFSESISELTEKILCEDPLPPIPKDSSRPKASSDFINLLDGLLQRDPQKRLTWTRLLQHSFWKKAFAGADQESSVEDLSLSRNTMECSGPQDSKELLQNSQSRQAKGHKSGQPLGHSFRLENPTEFRPKSTLEGQLNESMFLLSSRPTPRTSTAVEVSPGEDMTHCSPQKTSPLTKITSGHLSQQDLESQMRELIYTDSDLVVTPIIDNPKIMKQPPVKFDAKILHLPTYSVDKLLFLKDQDWNDFLQQVCSQIDSTEKSMGASRAKLNLLCYLCVVAGHQEVATRLLHSPLFQLLIQHLRIAPNWDIRAKVAHVIGLLASHTAELQENTPVVEAIVLLTELIRENFRNSKLKQCLLPTLGELIYLVATQEEKKKNPRECWAVPLAAYTVLMRCLREGEERVVNHMAAKIIENVCTTFSAQSQGFITGEIGPILWYLFRHSTADSLRITAVSALCRITRHSPTAFQNVIEKVGLNSVINSLASAICKVQQYMLTLFAAMLSCGIHLQRLIQEKGFVSTIIRLLDSPSTCIRAKAFLVLLYILIYNREMLLLSCQARLVMYIERDSRKTTPGKEQQSGNEYLSKCLDLLICHIVQELPRILGDILNSLANVSGRKHPSTVQVKQLKLCLPLMPVVLHLVTSQVFRPQVVTEEFLFSYGTILSHIKSVDSGETNIDGAIGLTASEEFIKITLSAFEAIIQYPILLKDYRSTVVDYILPPLVSLVQSQNVEWRLFSLRLLSETTSLLVNQEFGDGKEKASVDSDSNLLALIRDVLLPQYEHILLEPDPVPAYALKLLVAMTEHNPEFERLVEESRLIPLIFEVTLEHQESILGNTMQSVIALLSNLVACKDSNMELLYEQGLVSHICNLLTETATLCLDVDNKNNNEMAAPLLFSLLDILHSMLTYTSGIVRLALQAQKSGSGEDPQAAEDLLLLNRPLTDLISLLIPLLPNEDPEIFDVSSKCLSILVQLYGGENPDSLSPENVEIFAHLLTSKEDPKEQKLLLRILRRMITSNEKHLESLKNAGSLLRALERLAPGSGSFADSAVAPLALEILQAVGH
For B2, the binding entry was “binds”.
